Reference: patent US6521797B1, “Oxime carboxylic acid derivative precursors” (Givaudan AG, priority 1998, dated 2003)

Tested on: lipase-containing detergent
Experiment: Washing of test cloth with lipase-containing detergent plus precursor, headspace analysis of wet and dry laundry

## CCCCCCCC(=O)ON=C(C)C1CC2C=CC1C2 (centres unmarked) [Example 1(a), octanoic acid 1-bicyclo-[2.2.1]hept-5-en-2-yl-ethanone oxime ester]
lipase-containing detergent
  Fragrance level compared to test cloth washed with detergent containing an equivalent amount of the fragrance: higher
lipase-containing detergent with precursor added
  Headspace analysis of the wet and dry laundry: decomposition product (fragrance): presence of the decomposition product 1-bicyclo [2.2.1]hept-5-en-2-yl-ethanone oxime
